Assay results taken from patent publication US12729225B2, “Non-canonical SWI/SNF complex and uses thereof” (Dana-Farber Cancer Institute, Inc., priority 2018, dated 2026).

B1: IDH3A (protein, UniProt P50213 28-366, looked up)
Isocitrate dehydrogenase …: TGGVQTVTLIPGDGIGPEISAAVMKIFDAAKAPIQWEERNVTAIQGPGGKWMIPSEAKESMDKNKMGLKGPLKTPIAAGHPSMNLLLRKTFDLYANVRPCVSIEGYKTPYTDVNIVTIRENTEGEYSGIEHVIVDGVVQSIKLITEGASKRIAEFAFEYARNNHRSNVTAVHKANIMRMSDGLFLQKCREVAESCKDIKFNEMYLDTVCLNMVQDPSQFDVLVMPNLYGDILSDLCAGLIGGLGVTPSGNIGANGVAIFESVHGTAPDIAGKDMANPTALLLSAVMMLRHMGLFDHAARIEAACFATIKDGKSLTKDLGGNAKCSDFTEEICRRVKDLD
B2: SLC25A5 (protein, UniProt P05141 1-298, looked up)
ADP/ATP translocase 2: MTDAAVSFAKDFLAGGVAAAISKTAVAPIERVKLLLQVQHASKQITADKQYKGIIDCVVRIPKEQGVLSFWRGNLANVIRYFPTQALNFAFKDKYKQIFLGGVDKRTQFWLYFAGNLASGGAAGATSLCFVYPLDFARTRLAADVGKAGAEREFRGLGDCLVKIYKSDGIKGLYQGFNVSVQGIIIYRAAYFGIYDTAKGMLPDPKNTHIVISWMIAQTVTAVAGLTSYPFDTVRRRMMMQSGRKGTDIMYTGTLDCWRKIARDEGGKAFFKGAWSNVLRGMGGAFVLVLYDEIKKYT
B3: DPM1 (protein, UniProt O60762 2-260, looked up)
Dolichol-phosphate …: ASLEVSRSPRRSRRELEVRSPRQNKYSVLLPTYNERENLPLIVWLLVKSFSESGINYEIIIIDDGSPDGTRDVAEQLEKIYGSDRILLRPREKKLGLGTAYIHGMKHATGNYIIIMDADLSHHPKFIPEFIRKQKEGNFDIVSGTRYKGNGGVYGWDLKRKIISRGANFLTQILLRPGASDLTGSFRLYRKEVLEKLIEKCVSKGYVFQMEMIVRARQLNYTIGEVPISFVDRVYGESKLGGNEIVSFLKGLLTLFATT
B4: NUP107 (protein, UniProt P57740 1-925, looked up)
Nuclear pore complex protein …: MDRSGFGEISSPVIREAEVTRTARKQSAQKRVLLQASQDENFGNTTPRNQVIPRTPSSFRQPFTPTSRSLLRQPDISCILGTGGKSPRLTQSSGFFGNLSMVTNLDDSNWAAAFSSQRSGLFTNTEPHSITEDVTISAVMLREDDPGEAASMSMFSDFLQSFLKHSSSTVFDLVEEYENICGSQVNILSKIVSRATPGLQKFSKTASMLWLLQQEMVTWRLLASLYRDRIQSALEEESVFAVTAVNASEKTVVEALFQRDSLVRQSQLVVDWLESIAKDEIGEFSDNIEFYAKSVYWENTLHTLKQRQLTSYVGSVRPLVTELDPDAPIRQKMPLDDLDREDEVRLLKYLFTLIRAGMTEEAQRLCKRCGQAWRAATLEGWKLYHDPNVNGGTELEPVEGNPYRRIWKISCWRMAEDELFNRYERAIYAALSGNLKQLLPVCDTWEDTVWAYFRVMVDSLVEQEIQTSVATLDETEELPREYLGANWTLEKVFEELQATDKKRVLEENQEHYHIVQKFLILGDIDGLMDEFSKWLSKSRNNLPGHLLRFMTHLILFFRTLGLQTKEEVSIEVLKTYIQLLIREKHTNLIAFYTCHLPQDLAVAQYALFLESVTEFEQRHHCLELAKEADLDVATITKTVVENIRKKDNGEFSHHDLAPALDTGTTEEDRLKIDVIDWLVFDPAQRAEALKQGNAIMRKFLASKKHEAAKEVFVKIPQDSIAEIYNQCEEQGMESPLPAEDDNAIREHLCIRAYLEAHETFNEWFKHMNSVPQKPALIPQPTFTEKVAHEHKEKKYEMDFGIWKGHLDALTADVKEKMYNVLLFVDGGWMVDVREDAKEDHERTHQMVLLRKLCLPMLCFLLHTILHSTGQYQECLQLADMVSSERHKLYLVFSKEELRKLLQKLRESSLMLLDQGLDPLGYEIQL
B5: HNRNPD (protein, UniProt Q14103 2-355, looked up)
Heterogeneous nuclear …: SEEQFGGDGAAAAATAAVGGSAGEQEGAMVAATQGAAAAAGSGAGTGGGTASGGTEGGSAESEGAKIDASKNEEDEGHSNSSPRHSEAATAQREEWKMFIGGLSWDTTKKDLKDYFSKFGEVVDCTLKLDPITGRSRGFGFVLFKESESVDKVMDQKEHKLNGKVIDPKRAKAMKTKEPVKKIFVGGLSPDTPEEKIREYFGGFGEVESIELPMDNKTNKRRGFCFITFKEEEPVKKIMEKKYHNVGLSKCEIKVAMSKEQYQQQQQWGSRGGFAGRARGRGGGPSQNWNQGYSNYWNQGYGNYGYNSQGYGGYGGYDYTGYNNYYGYGDYSNQQSGYGKVSRRGGHQNSYKPY
B6: TKT (protein, UniProt P29401 1-623, looked up)
Transketolase: MESYHKPDQQKLQALKDTANRLRISSIQATTAAGSGHPTSCCSAAEIMAVLFFHTMRYKSQDPRNPHNDRFVLSKGHAAPILYAVWAEAGFLAEAELLNLRKISSDLDGHPVPKQAFTDVATGSLGQGLGAACGMAYTGKYFDKASYRVYCLLGDGELSEGSVWEAMAFASIYKLDNLVAILDINRLGQSDPAPLQHQMDIYQKRCEAFGWHAIIVDGHSVEELCKAFGQAKHQPTAIIAKTFKGRGITGVEDKESWHGKPLPKNMAEQIIQEIYSQIQSKKKILATPPQEDAPSVDIANIRMPSLPSYKVGDKIATRKAYGQALAKLGHASDRIIALDGDTKNSTFSEIFKKEHPDRFIECYIAEQNMVSIAVGCATRNRTVPFCSTFAAFFTRAFDQIRMAAISESNINLCGSHCGVSIGEDGPSQMALEDLAMFRSVPTSTVFYPSDGVATEKAVELAANTKGICFIRTSRPENAIIYNNNEDFQVGQAKVVLKSKDDQVTVIGAGVTLHEALAAAELLKKEKINIRVLDPFTIKPLDRKLILDSARATKGRILTVEDHYYEGGIGEAVSSAVVGEPGITVTHLAVNRVPRSGKPAELLKMFGIDRDAIAQAVRGLITKA
B7: SRPRB (protein, UniProt Q9Y5M8 1-271, looked up)
Signal recognition particle …: MASADSRRVADGGGAGGTFQPYLDTLRQELQQTDPTLLSVVVAVLAVLLTLVFWKLIRSRRSSQRAVLLVGLCDSGKTLLFVRLLTGLYRDTQTSITDSCAVYRVNNNRGNSLTLIDLPGHESLRLQFLERFKSSARAIVFVVDSAAFQREVKDVAEFLYQVLIDSMGLKNTPSFLIACNKQDIAMAKSAKLIQQQLEKELNTLRVTRSAAPSTLDSSSTAPAQLGKKGKEFEFSQLPLKVEFLECSAKGGRGDVGSADIQDLEKWLAKIA
B8: TOMM22 (protein, UniProt Q9NS69 2-142, looked up)
Mitochondrial import receptor …: AAAVAAAGAGEPQSPDELLPKGDAEKPEEELEEDDDEELDETLSERLWGLTEMFPERVRSAAGATFDLSLFVAQKMYRFSRAALWIGTTSFMILVLPVVFETEKLQMEQQQQLQQRQILLGPNTGLSGGMPGALPSLPGKI
B9: ARL6IP4 (protein, UniProt Q66PJ3 1-237, looked up)
ADP-ribosylation factor-like …: MAHVGSRKRSRSRSRSRGRGSEKRKKKSRKDTSRNCSASTSQGRKASTAPGAEASPSPCITERSKQKARRRTRSSSSSSSSSSSSSSSSSSSSSSSSSDGRKKRGKYKDKRRKKKKKRKKLKKKGKEKAEAQQVEALPGPSLDQWHRSAGEEEDGPVLTDEQKSRIQAMKPMTKEEWDARQSIIRKVVDPETGRTRLIKGDGEVLEEIVTKERHREINKQATRGDCLAFQMRAGLLP
B10: SYNCRIP (protein, UniProt O60506 2-623, looked up)
Heterogeneous nuclear …: ATEHVNGNGTEEPMDTTSAVIHSENFQTLLDAGLPQKVAEKLDEIYVAGLVAHSDLDERAIEALKEFNEDGALAVLQQFKDSDLSHVQNKSAFLCGVMKTYRQREKQGTKVADSSKGPDEAKIKALLERTGYTLDVTTGQRKYGGPPPDSVYSGQQPSVGTEIFVGKIPRDLFEDELVPLFEKAGPIWDLRLMMDPLTGLNRGYAFVTFCTKEAAQEAVKLYNNHEIRSGKHIGVCISVANNRLFVGSIPKSKTKEQILEEFSKVTEGLTDVILYHQPDDKKKNRGFCFLEYEDHKTAAQARRRLMSGKVKVWGNVGTVEWADPIEDPDPEVMAKVKVLFVRNLANTVTEEILEKAFSQFGKLERVKKLKDYAFIHFDERDGAVKAMEEMNGKDLEGENIEIVFAKPPDQKRKERKAQRQAAKNQMYDDYYYYGPPHMPPPTRGRGRGGRGGYGYPPDYYGYEDYYDYYGYDYHNYRGGYEDPYYGYEDFQVGARGRGGRGARGAAPSRGRGAAPPRGRAGYSQRGGPGSARGVRGARGGAQQQRGRGVRGARGGRGGNVGGKRKADGYNQPDSKRRQTNNQNWGSQPIAQQPLQGGDHSGNYGYKSENQEFYQDTFGQQWK
B11: SF3A1 (protein, UniProt Q15459 2-793, looked up)
Splicing factor 3A subunit 1: PAGPVQAVPPPPPVPTEPKQPTEEEASSKEDSAPSKPVVGIIYPPPEVRNIVDKTASFVARNGPEFEARIRQNEINNPKFNFLNPNDPYHAYYRHKVSEFKEGKAQEPSAAIPKVMQQQQQTTQQQLPQKVQAQVIQETIVPKEPPPEFEFIADPPSISAFDLDVVKLTAQFVARNGRQFLTQLMQKEQRNYQFDFLRPQHSLFNYFTKLVEQYTKILIPPKGLFSKLKKEAENPREVLDQVCYRVEWAKFQERERKKEEEEKEKERVAYAQIDWHDFVVVETVDFQPNEQGNFPPPTTPEELGARILIQERYEKFGESEEVEMEVESDEEDDKQEKAEEPPSQLDQDTQVQDMDEGSDDEEEGQKVPPPPETPMPPPLPPTPDQVIVRKDYDPKASKPLPPAPAPDEYLVSPITGEKIPASKMQEHMRIGLLDPRWLEQRDRSIREKQSDDEVYAPGLDIESSLKQLAERRTDIFGVEETAIGKKIGEEEIQKPEEKVTWDGHSGSMARTQQAAQANITLQEQIEAIHKAKGLVPEDDTKEKIGPSKPNEIPQQPPPPSSATNIPSSAPPITSVPRPPTMPPPVRTTVVSAVPVMPRPPMASVVRLPPGSVIAPMPPIIHAPRINVVPMPPSAPPIMAPRPPPMIVPTAFVPAPPVAPVPAPAPMPPVHPPPPMEDEPTSKKLKTEDSLMPEEEFLRRNKGPVSIKVQVPNMQDKTEWKLNGQVLVFTLPLTDQVSVIKVKIHEATGMPAGKQKLQYEGIFIKDSNSLAYYNMANGAVIHLALKERGGRKK

What follows are molecules tested on mSWI/SNF complexes (assay: mSWI/SNF complex purification with HA-tagged baits and mass spectrometry (peptide counts)). Conditions: 293_HA-BRD7: HA-BRD7 bait purification, total peptide count per co-purified protein.
Set-up: species or system human
B1 was tested, and the Total was 6. In the case of B2, the Total is reported as 6. B3 showed a Total of 5. With B4 the Total was 5. B5 gave a Total of 4. B6 showed a Total of 4. In the case of B7, the Total is reported as 4. For B8, the Total was 4. B9 gave a Total of 4. Work on B10 yielded a Total of 4. For B11, the Total was 4.

Same assay, conditions: 293_HA-BRD7: HA-BRD7 bait purification, unique peptide count per co-purified protein
B1 gave a Unique of 4. In the case of B2, the Unique is reported as 4. For B3, the Unique was 4. B4 gave a Unique of 4. In the case of B5, the Unique is reported as 4. B6 gave a Unique of 4. B7 showed a Unique of 4. Work on B8 yielded a Unique of 4. B9 showed a Unique of 4. With B10 the Unique was 4. With B11 the Unique was 4.

Same assay, conditions: 293_HA-DPF2 purification, total peptides
B2 gave a Total of 3.

Same assay, conditions: 293_HA-DPF2 purification, unique peptides
For B2, the Unique was 3.
